These are yes or no findings as the source states them, for the method shown. In cells and extracts the contact can be indirect. A yes stands for co-enrichment or nearness to the bait. Other partners may have been found. For some of these results: No binding means not detected with the bait. For some of these results: Where a sequence is shown, tags or fusion partners need not be part of it.
T1: SIN3A-HaloTag (human), Q96ST3
T1 chain: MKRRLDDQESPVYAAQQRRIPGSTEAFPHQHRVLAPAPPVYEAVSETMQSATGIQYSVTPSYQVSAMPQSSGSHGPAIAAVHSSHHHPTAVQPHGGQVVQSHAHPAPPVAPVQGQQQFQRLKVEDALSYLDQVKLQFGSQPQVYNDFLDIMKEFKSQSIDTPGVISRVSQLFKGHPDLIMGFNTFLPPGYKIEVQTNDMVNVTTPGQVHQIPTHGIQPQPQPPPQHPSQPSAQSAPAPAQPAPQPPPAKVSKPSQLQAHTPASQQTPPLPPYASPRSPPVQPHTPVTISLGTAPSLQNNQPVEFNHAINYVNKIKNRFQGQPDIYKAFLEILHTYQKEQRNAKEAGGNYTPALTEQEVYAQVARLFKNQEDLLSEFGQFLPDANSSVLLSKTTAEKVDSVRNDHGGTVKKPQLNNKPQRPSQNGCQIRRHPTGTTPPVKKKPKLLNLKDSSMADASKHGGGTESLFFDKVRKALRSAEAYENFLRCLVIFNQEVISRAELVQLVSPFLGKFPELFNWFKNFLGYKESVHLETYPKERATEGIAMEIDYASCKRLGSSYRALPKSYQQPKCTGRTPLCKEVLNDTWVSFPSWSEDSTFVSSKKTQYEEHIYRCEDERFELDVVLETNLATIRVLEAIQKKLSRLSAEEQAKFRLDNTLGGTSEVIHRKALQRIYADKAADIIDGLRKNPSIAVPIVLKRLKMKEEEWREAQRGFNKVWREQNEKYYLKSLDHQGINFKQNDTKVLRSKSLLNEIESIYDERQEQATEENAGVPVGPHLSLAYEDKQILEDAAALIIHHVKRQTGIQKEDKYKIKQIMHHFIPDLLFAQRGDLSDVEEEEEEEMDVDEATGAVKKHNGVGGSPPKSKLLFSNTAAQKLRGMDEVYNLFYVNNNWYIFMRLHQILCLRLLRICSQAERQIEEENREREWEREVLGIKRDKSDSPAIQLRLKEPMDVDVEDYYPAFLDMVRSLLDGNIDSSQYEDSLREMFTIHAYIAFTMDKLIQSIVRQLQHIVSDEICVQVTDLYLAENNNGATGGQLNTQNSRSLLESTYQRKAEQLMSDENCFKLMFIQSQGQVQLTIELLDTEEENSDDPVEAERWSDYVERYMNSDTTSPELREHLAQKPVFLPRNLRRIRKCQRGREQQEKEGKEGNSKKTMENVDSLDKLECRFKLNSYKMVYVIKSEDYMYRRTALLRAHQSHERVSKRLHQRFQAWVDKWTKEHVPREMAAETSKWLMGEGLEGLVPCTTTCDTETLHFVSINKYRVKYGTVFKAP

T2: SIN3A-HaloTag (human) (UniProt Q96ST3)
T2 sequence: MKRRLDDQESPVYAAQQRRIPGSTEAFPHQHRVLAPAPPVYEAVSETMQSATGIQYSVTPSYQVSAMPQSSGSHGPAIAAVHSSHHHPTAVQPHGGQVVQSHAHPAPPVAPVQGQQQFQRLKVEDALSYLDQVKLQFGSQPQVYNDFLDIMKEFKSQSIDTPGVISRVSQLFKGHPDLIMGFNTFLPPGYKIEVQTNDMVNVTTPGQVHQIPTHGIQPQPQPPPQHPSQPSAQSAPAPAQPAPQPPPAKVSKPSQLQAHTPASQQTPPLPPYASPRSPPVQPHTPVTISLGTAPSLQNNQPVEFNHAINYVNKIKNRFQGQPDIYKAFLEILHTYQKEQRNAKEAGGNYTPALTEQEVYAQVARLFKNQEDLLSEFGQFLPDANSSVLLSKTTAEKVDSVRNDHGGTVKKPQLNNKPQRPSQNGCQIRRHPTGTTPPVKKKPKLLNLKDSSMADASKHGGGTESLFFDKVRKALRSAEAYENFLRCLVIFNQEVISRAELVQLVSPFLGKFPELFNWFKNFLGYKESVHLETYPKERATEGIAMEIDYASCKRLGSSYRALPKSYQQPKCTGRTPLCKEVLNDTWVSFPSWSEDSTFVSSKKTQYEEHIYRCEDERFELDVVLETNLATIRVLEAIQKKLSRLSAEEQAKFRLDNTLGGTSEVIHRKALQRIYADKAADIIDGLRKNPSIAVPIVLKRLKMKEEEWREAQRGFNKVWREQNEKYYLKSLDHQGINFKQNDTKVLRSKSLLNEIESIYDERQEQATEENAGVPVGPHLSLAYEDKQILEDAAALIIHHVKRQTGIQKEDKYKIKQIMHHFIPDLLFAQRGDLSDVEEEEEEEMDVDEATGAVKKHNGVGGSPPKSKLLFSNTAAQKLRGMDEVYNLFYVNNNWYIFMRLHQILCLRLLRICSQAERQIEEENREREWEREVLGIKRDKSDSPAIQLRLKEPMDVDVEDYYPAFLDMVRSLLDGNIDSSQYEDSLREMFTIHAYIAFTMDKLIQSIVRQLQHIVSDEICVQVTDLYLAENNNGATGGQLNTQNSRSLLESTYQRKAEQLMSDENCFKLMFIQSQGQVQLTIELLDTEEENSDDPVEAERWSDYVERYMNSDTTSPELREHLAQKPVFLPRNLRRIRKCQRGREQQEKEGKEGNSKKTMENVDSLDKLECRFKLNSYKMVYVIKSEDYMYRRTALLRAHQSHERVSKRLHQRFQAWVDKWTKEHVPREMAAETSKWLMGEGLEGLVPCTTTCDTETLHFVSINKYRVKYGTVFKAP

T3: Halo-tagged GATAD1 (human) (UniProt Q8WUU5)
T3 sequence: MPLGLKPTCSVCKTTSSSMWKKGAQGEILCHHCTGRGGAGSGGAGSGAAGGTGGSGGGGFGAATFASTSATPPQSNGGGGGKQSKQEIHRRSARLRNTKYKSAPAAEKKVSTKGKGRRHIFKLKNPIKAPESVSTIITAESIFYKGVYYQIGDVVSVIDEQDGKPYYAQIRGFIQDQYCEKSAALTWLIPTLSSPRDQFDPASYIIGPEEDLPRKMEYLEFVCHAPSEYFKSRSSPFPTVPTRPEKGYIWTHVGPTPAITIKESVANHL


Key:
Experiment in all cases: affinity purification with mass spectrometry; Halo-tagged bait stably expressed in Flp-In-293 cells; lysate with HL-SAN nuclease 2 U/ml for 2 h at 4 °C; bait captured on Magne HaloTag Beads, eluted with AcTEV Protease; MudPIT; enrichment over cells without transgene by QSPEC (Z-statistic >= 3 and log2 fold change >= 2)
[1] = target: T1, SIN3A-HaloTag (human), Q96ST3; conditions: remark: other sources report otherwise
[2] = target: T2, SIN3A-HaloTag (human)
[3] = target: T3, Halo-tagged GATAD1 (human)
[4] = target: Halo-tagged PHF12 (human) (UniProt Q96QT6)
[5] = target: Halo-tagged PHF12 (human), Q96QT6; conditions: remark: other sources report otherwise
[6] = target: Halo-tagged MORF4L1 (human), Q9UBU8; conditions: remark: other sources report otherwise

binding [1] | binding [2] | binding [3] | binding [4] | binding [5] | binding [6] | Binder
no binding | – | – | – | – | – | PHF12, Q96QT6 1-1004 (protein) MWEKMETKTIVYDLDTSGGLMEQIQALLAPPKTDEAEKRSRKPEKEPRRSGRATNHDSCDSCKEGGDLLCCDHCPAAFHLQCCNPPLSEEMLPPGEWMCHRCTVRRKKREQKKELGHVNGLVDKSGKRTTSPSSDTDLLDRSASKTELKAIAHARILERRASRPGTPTSSASTETPTSEQNDVDEDIIDVDEEPVAAEPDYVQPQLRRPFELLIAAAMERNPTQFQLPNELTCTTALPGSSKRRRKEETTGKNVKKTQHELDHNGLVPLPVKVCFTCNRSCRVAPLIQCDYCPLLFHMDCLEPPLTAMPLGRWMCPNHIEHVVLNQKNMTLSNRCQVFDRFQDTVSQHVVKVDFLNRIHKKHPPNRRVLQSVKRRSLKVPDAIKSQYQFPPPLIAPAAIRDGELICNGIPEESQMHLLNSEHLATQAEQQEWLCSVVALQCSILKHLSAKQMPSHWDSEQTEKADIKPVIVTDSSVTTSLQTADKTPTPSHYPLSCPSGISTQNSLSCSPPHQSPALEDIGCSSCAEKSKKTPCGTANGPVNTEVKANGPHLYSSPTDSTDPRRLPGANTPLPGLSHRQGWPRPLTPPAAGGLQNHTVGIIVKTENATGPSSCPQRSLVPVPSLPPSIPSSCASIENTSTLQRKTVQSQIGPPLTDSRPLGSPPNATRVLTPPQAAGDGILATTANQRFSSPAPSSDGKVSPGTLSIGSALTVPSFPANSTAMVDLTNSLRAFMDVNGEIEINMLDEKLIKFLALQRIHQLFPSRVQPSPGSVGTHQLASGGHHIEVQRKEVQARAVFYPLLGLGGAVNMCYRTLYIGTGADMDVCLTNYGHCNYVSGKHACIFYDENTKHYELLNYSEHGTTVDNVLYSCDFSEKTPPTPPSSIVAKVQSVIRRRRHQKQDEEPSEEAAMMSSQAQGPQRRPCNCKASSSSLIGGSGAGWEGTALLHHGSYIKLGCLQFVFSITEFATKQPKGDASLLQDGVLAEKLSLKPHQGPVLRSNSVP
– | no binding | binds | binds | – | – | EMSY (protein, UniProt Q7Z589 1-1322) MPVVWPTLLDLSRDECKRILRKLELEAYAGVISALRAQGDLTKEKKDLLGELSKVLSISTERHRAEVRRAVNDERLTTIAHNMSGPNSSSEWSIEGRRLVPLMPRLVPQTAFTVTANAVANAAIQHNASLPVPAETGSKEVVCYSYTSTTSTPTSTPVPSGSIATVKSPRPASPASNVVVLPSGSTVYVKSVSCSDEDEKPRKRRRTNSSSSSPVVLKEVPKAVVPVSKTITVPVSGSPKMSNIMQSIANSLPPHMSPVKITFTKPSTQTTNTTTQKVIIVTTSPSSTFVPNILSKSHNYAAVTKLVPTSVIASTTQKPPVVITASQSSLVSNSSSGSSSSTPSPIPNTVAVTAVVSSTPSVVMSTVAQGVSTSAIKMASTRLPSPKSLVSAPTQILAQFPKQHQQSPKQQLYQVQQQTQQQVAQPSPVSHQQQPQQSPLPPGIKPTIQIKQESGVKIITQQVQPSKILPKPVTATLPTSSNSPIMVVSSNGAIMTTKLVTTPTGTQATYTRPTVSPSIGRMAATPGAATYVKTTSGSIITVVPKSLATLGGKIISSNIVSGTTTKITTIPMTSKPNVIVVQKTTGKGTTIQGLPGKNVVTTLLNAGGEKTIQTVPTGAKPAILTATRPITKMIVTQPKGIGSTVQPAAKIIPTKIVYGQQGKTQVLIKPKPVTFQATVVSEQTRQLVTETLQQASRVAEAGNSSIQEGKEEPQNYTDSSSSSTESSQSSQDSQPVVHVIASRRQDWSEHEIAMETSPTIIYQDVSSESQSATSTIKALLELQQTTVKEKLESKPRQPTIDLSQMAVPIQMTQEKRHSPESPSIAVVESELVAEYITTERTDEGTEVAFPLLVSHRSQPQQPSQPQRTLLQHVAQSQTATQTSVVVKSIPASSPGAITHIMQQALSSHTAFTKHSEELGTEEGEVEEMDTLDPQTGLFYRSALTQSQSAKQQKLSQPPLEQTQLQVKTLQCFQTKQKQTIHLQADQLQHKLPQMPQLSIRHQKLTPLQQEQAQPKPDVQHTQHPMVAKDRQLPTLMAQPPQTVVQVLAVKTTQQLPKLQQAPNQPKIYVQPQTPQSQMSLPASSEKQTASQVEQPIITQGSSVTKITFEGRQPPTVTKITGGSSVPKLTSPVTSISPIQASEKTAVSDILKMSLMEAQIDTNVEHMIVDPPKKALATSMLTGEAGSLPSTHMVVAGMANSTPQQQKCRESCSSPSTVGSSLTTRKIDPPAVPATGQFMRIQNVGQKKAEESPAEIIIQAIPQYAIPCHSSSNVVVEPSGLLELNNFTSQQLDDEETAMEQDIDSSTEDGTEPSPSQSSAERS
binds | – | – | – | no binding | no binding | SIN3A (native, untagged), Q96ST3 1-1273 (protein) MKRRLDDQESPVYAAQQRRIPGSTEAFPHQHRVLAPAPPVYEAVSETMQSATGIQYSVTPSYQVSAMPQSSGSHGPAIAAVHSSHHHPTAVQPHGGQVVQSHAHPAPPVAPVQGQQQFQRLKVEDALSYLDQVKLQFGSQPQVYNDFLDIMKEFKSQSIDTPGVISRVSQLFKGHPDLIMGFNTFLPPGYKIEVQTNDMVNVTTPGQVHQIPTHGIQPQPQPPPQHPSQPSAQSAPAPAQPAPQPPPAKVSKPSQLQAHTPASQQTPPLPPYASPRSPPVQPHTPVTISLGTAPSLQNNQPVEFNHAINYVNKIKNRFQGQPDIYKAFLEILHTYQKEQRNAKEAGGNYTPALTEQEVYAQVARLFKNQEDLLSEFGQFLPDANSSVLLSKTTAEKVDSVRNDHGGTVKKPQLNNKPQRPSQNGCQIRRHPTGTTPPVKKKPKLLNLKDSSMADASKHGGGTESLFFDKVRKALRSAEAYENFLRCLVIFNQEVISRAELVQLVSPFLGKFPELFNWFKNFLGYKESVHLETYPKERATEGIAMEIDYASCKRLGSSYRALPKSYQQPKCTGRTPLCKEVLNDTWVSFPSWSEDSTFVSSKKTQYEEHIYRCEDERFELDVVLETNLATIRVLEAIQKKLSRLSAEEQAKFRLDNTLGGTSEVIHRKALQRIYADKAADIIDGLRKNPSIAVPIVLKRLKMKEEEWREAQRGFNKVWREQNEKYYLKSLDHQGINFKQNDTKVLRSKSLLNEIESIYDERQEQATEENAGVPVGPHLSLAYEDKQILEDAAALIIHHVKRQTGIQKEDKYKIKQIMHHFIPDLLFAQRGDLSDVEEEEEEEMDVDEATGAVKKHNGVGGSPPKSKLLFSNTAAQKLRGMDEVYNLFYVNNNWYIFMRLHQILCLRLLRICSQAERQIEEENREREWEREVLGIKRDKSDSPAIQLRLKEPMDVDVEDYYPAFLDMVRSLLDGNIDSSQYEDSLREMFTIHAYIAFTMDKLIQSIVRQLQHIVSDEICVQVTDLYLAENNNGATGGQLNTQNSRSLLESTYQRKAEQLMSDENCFKLMFIQSQGQVQLTIELLDTEEENSDDPVEAERWSDYVERYMNSDTTSPELREHLAQKPVFLPRNLRRIRKCQRGREQQEKEGKEGNSKKTMENVDSLDKLECRFKLNSYKMVYVIKSEDYMYRRTALLRAHQSHERVSKRLHQRFQAWVDKWTKEHVPREMAAETSKWLMGEGLEGLVPCTTTCDTETLHFVSINKYRVKYGTVFKAP
